Data: paper PMC7495420
These are yes or no findings as the source states them, for the method shown. Binding seen in cells or lysates may run through a third protein. Some binding calls cover weakened binding; strength is not graded here.

Sequences of proteins named here, by UniProt entry; tags and fusion partners are left off.
UniProt Q92766: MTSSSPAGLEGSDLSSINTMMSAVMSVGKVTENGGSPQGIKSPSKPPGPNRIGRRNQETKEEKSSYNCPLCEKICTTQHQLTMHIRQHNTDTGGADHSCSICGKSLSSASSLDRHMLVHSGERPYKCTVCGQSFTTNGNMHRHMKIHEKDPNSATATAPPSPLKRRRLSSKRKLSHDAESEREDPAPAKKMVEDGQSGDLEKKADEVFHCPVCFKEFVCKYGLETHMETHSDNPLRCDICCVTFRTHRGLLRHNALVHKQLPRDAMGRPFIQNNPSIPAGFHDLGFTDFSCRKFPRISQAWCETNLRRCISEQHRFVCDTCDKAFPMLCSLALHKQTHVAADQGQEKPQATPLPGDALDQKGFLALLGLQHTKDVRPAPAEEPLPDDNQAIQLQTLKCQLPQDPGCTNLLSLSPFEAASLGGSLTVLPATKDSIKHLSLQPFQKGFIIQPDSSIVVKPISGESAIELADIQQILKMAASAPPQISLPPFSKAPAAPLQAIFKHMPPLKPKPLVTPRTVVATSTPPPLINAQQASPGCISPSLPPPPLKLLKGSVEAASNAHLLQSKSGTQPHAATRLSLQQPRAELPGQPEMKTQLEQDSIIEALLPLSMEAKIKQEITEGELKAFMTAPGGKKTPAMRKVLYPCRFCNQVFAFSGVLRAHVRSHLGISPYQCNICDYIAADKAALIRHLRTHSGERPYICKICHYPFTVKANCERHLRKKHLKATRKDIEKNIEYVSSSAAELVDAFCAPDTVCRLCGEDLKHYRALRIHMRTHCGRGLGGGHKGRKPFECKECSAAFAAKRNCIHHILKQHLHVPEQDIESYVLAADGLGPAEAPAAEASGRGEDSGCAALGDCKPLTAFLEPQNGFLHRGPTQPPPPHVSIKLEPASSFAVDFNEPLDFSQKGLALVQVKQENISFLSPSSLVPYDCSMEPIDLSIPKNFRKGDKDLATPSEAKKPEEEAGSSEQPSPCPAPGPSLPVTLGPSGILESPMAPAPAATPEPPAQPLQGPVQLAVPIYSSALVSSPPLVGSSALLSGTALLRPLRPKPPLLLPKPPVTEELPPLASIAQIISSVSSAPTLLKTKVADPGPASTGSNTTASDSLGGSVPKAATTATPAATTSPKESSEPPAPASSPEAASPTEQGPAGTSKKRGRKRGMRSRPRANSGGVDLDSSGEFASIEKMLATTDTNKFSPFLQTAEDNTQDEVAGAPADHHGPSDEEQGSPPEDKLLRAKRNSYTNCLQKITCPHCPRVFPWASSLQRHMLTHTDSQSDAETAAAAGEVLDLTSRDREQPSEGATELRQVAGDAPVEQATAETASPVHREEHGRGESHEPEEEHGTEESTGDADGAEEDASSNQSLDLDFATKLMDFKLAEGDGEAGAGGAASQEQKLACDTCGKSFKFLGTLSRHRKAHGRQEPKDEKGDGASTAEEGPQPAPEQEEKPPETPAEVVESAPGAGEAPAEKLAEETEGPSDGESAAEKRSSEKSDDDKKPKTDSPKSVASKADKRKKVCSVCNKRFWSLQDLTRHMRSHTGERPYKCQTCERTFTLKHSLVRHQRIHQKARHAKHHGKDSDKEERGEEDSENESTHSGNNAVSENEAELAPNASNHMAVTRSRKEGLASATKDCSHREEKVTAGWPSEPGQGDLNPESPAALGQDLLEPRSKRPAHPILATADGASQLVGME
UniProt Q13547: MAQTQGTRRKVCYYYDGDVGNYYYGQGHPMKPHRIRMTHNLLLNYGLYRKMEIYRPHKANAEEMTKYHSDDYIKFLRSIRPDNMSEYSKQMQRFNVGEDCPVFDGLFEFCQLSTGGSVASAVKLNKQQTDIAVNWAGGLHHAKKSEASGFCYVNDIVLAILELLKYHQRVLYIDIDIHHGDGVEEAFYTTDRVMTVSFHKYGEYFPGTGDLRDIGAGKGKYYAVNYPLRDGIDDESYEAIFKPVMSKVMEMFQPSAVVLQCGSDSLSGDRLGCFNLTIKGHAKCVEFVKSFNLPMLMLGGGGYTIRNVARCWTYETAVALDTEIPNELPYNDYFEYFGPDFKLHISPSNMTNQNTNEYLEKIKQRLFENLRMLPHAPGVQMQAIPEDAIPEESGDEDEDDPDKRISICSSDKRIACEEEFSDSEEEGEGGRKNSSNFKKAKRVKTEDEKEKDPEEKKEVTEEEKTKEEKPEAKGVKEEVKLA
UniProt Q92769: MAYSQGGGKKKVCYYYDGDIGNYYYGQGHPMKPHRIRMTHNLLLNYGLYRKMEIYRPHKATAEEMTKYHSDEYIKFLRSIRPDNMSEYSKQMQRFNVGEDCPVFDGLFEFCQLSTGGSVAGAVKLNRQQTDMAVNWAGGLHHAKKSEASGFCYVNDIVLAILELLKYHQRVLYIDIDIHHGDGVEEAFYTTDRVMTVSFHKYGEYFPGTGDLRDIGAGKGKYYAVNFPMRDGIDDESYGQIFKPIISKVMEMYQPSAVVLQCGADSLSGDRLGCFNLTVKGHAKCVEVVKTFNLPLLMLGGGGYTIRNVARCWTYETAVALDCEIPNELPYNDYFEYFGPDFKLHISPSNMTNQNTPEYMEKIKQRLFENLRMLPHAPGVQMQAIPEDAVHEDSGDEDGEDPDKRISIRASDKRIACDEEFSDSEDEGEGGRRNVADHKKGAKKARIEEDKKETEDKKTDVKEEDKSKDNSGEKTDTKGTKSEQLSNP
UniProt Q9UKL0: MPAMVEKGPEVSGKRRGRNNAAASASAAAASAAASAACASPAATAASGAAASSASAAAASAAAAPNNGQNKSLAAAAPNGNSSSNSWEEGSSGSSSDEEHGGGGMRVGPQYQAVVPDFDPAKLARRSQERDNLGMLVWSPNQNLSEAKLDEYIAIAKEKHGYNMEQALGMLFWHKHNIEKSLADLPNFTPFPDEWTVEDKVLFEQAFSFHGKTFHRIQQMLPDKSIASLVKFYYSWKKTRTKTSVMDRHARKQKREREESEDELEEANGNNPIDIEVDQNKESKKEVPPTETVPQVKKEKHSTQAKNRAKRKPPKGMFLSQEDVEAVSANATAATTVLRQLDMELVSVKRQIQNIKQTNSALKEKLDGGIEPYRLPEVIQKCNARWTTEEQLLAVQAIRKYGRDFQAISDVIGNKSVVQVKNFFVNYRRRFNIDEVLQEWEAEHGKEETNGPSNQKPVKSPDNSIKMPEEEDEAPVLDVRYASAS

Key:
[1] = target: VC-RREB1 (pCMV-HA-VC155-RREB1) (UniProt Q92766); test: split reporter; BiFC in HEK293 cells: VC155-RREB1 with VN173-tagged partners, Venus fluorescence by confocal imaging
[2] = target: endogenous RREB1 (all three isoforms) (human) (UniProt Q92766); test: co-sedimentation; glycerol gradient (10–60%) ultracentrifugation of HEK293 extract at 135,000 g for 18 h at 4 °C; fractions analysed by western blot for endogenous proteins

Row | binding [1] | binding [2] | Substance
1 | binds |  | VN-HDAC1 (pCMV-HA-VN173-HDAC1) (from UniProt Q13547 1-482)
2 |  | binds | endogenous HDAC1 (from UniProt Q13547 1-482)
3 |  | binds | endogenous HDAC2 (from UniProt Q92769 1-488)
4 |  | binds | endogenous RCOR1 (from UniProt Q9UKL0 1-485)
